Data as given in doi:10.1101/2024.02.27.582283.
Results are given in words; binding and its absence hold for the method and conditions named. Binding seen in cells or lysates may run through a third protein. Here binding means that the protein was enriched with, or labelled near, the bait; the list need not be complete.

By UniProt entry, the sequences of proteins in these tests, tags left out. Where a name states a change or a piece, a line headed by the entry shows the natural chain unless it says otherwise.
UniProt Q9U263: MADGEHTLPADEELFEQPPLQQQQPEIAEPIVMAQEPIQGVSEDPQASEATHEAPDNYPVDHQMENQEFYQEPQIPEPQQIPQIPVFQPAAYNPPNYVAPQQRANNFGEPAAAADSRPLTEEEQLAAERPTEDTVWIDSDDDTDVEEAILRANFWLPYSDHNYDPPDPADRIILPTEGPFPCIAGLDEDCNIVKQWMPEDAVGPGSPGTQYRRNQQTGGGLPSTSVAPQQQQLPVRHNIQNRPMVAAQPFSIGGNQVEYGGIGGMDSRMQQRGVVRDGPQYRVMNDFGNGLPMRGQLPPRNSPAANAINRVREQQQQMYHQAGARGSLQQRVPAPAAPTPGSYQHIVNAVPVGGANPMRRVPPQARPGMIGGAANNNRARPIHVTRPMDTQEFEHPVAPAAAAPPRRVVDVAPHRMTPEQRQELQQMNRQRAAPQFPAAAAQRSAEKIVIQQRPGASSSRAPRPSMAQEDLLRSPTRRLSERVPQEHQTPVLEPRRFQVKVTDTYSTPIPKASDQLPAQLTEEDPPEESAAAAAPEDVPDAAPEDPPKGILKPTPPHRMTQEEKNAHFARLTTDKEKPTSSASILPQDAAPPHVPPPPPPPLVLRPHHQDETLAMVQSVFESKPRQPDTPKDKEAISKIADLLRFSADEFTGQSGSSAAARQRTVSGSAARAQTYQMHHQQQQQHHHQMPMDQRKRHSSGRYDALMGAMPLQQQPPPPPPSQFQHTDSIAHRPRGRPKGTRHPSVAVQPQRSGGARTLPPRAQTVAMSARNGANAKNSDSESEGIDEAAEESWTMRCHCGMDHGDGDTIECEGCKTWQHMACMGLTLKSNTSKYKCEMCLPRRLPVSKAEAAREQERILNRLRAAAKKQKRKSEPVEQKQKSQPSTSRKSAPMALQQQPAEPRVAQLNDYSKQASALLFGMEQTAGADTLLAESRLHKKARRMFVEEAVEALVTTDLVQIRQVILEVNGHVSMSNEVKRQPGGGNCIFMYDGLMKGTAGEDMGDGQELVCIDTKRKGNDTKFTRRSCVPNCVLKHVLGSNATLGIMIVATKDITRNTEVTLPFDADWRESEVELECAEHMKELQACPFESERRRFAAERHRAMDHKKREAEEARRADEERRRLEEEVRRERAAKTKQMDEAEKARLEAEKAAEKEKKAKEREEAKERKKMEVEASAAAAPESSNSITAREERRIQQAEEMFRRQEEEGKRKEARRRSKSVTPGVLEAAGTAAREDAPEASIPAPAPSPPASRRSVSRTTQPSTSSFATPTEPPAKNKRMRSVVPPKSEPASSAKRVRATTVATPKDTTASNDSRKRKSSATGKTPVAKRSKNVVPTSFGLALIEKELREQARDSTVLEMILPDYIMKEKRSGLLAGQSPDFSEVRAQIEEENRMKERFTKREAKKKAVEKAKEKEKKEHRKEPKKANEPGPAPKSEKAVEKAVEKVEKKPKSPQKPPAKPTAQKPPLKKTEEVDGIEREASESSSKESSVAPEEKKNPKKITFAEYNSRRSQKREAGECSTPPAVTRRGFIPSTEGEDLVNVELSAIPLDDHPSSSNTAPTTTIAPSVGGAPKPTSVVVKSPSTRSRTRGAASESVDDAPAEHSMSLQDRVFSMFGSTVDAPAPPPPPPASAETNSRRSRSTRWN
UniProt Q9BL48: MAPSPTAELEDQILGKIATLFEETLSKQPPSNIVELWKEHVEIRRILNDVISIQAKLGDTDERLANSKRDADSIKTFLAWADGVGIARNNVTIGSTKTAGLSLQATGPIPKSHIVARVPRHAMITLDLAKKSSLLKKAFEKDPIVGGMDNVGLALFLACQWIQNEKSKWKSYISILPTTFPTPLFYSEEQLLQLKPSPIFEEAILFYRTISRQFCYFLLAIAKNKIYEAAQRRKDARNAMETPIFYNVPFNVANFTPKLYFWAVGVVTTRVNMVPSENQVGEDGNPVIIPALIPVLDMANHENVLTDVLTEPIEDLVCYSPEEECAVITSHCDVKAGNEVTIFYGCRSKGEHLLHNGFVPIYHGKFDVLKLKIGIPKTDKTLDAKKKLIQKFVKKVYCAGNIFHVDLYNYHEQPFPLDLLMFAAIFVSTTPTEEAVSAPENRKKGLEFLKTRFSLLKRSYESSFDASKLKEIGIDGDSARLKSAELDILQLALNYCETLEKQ

Molecular target: SET-26::GFP (WT background) (C. elegans) (UniProt Q9U263)
Assay: affinity purification with mass spectrometry

binding: binds
Substance: SET-27 (predicted methyltransferase) (from UniProt Q9BL48)
